System: RAW264.7 cells
Experiment: Epifluorescence microscopy of CFZ-incubated RAW264.7 cells (colocalization of fluorescent spots)
Format: cell-based
Conditions: RAW264.7 cells incubated with CFZ

## CC(C)N=c1cc2n(-c3ccc(Cl)cc3)c3ccccc3nc-2cc1Nc1ccc(Cl)cc1 [CFZ, 3-(p-chloroanilino)-10-(p-chlorophenyl)-2, 10-dihydro-2-isopropyliminophenazine]
  Pearson's Colocalization Coefficient, far-red with green fluorescent spots: 0.30±0.29
  Pearson's Colocalization Coefficient, red with far-red fluorescent spots: 0.61±0.20
  Pearson's Colocalization Coefficient, red with green fluorescent spots: 0.60±0.22

Reference: patent US20190262453A1, “DESIGN AND COMPOSITION OF CELL-STABILIZED PHARMACEUTICAL FORMULATIONS” (THE REGENTS OF THE UNIVERSITY OF MICHIGAN, priority 2016, published 2019)
